# Results published in PMC11555713.
# By UniProt entry, the sequences of proteins in these tests, tags left out. Where a name states a change or a piece, a line headed by the entry shows the natural chain unless it says otherwise.
# UniProt Q9BXL6: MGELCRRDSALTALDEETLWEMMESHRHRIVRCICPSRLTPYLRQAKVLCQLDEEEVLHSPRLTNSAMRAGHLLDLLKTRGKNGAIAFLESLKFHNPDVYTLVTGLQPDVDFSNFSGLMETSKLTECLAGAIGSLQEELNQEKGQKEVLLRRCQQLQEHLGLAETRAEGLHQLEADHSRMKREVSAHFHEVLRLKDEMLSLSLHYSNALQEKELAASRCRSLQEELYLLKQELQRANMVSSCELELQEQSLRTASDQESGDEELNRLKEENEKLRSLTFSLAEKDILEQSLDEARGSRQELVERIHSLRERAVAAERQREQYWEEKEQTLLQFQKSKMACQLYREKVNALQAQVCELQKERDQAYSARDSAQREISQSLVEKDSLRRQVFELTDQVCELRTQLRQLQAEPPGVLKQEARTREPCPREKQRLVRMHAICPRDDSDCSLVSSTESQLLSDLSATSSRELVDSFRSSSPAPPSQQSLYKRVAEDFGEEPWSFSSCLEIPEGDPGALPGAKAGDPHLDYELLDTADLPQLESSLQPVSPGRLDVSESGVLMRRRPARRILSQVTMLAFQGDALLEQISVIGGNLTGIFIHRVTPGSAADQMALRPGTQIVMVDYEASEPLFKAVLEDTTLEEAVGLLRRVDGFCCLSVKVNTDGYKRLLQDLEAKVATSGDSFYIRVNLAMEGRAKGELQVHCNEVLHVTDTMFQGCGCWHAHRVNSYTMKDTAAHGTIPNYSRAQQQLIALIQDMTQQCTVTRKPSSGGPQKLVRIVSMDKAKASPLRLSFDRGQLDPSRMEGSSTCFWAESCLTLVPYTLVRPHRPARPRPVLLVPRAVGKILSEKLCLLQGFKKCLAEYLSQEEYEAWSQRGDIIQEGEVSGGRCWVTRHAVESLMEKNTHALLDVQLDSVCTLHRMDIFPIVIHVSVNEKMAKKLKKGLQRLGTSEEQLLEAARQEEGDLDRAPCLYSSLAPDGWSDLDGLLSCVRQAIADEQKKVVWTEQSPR
# UniProt Q15075: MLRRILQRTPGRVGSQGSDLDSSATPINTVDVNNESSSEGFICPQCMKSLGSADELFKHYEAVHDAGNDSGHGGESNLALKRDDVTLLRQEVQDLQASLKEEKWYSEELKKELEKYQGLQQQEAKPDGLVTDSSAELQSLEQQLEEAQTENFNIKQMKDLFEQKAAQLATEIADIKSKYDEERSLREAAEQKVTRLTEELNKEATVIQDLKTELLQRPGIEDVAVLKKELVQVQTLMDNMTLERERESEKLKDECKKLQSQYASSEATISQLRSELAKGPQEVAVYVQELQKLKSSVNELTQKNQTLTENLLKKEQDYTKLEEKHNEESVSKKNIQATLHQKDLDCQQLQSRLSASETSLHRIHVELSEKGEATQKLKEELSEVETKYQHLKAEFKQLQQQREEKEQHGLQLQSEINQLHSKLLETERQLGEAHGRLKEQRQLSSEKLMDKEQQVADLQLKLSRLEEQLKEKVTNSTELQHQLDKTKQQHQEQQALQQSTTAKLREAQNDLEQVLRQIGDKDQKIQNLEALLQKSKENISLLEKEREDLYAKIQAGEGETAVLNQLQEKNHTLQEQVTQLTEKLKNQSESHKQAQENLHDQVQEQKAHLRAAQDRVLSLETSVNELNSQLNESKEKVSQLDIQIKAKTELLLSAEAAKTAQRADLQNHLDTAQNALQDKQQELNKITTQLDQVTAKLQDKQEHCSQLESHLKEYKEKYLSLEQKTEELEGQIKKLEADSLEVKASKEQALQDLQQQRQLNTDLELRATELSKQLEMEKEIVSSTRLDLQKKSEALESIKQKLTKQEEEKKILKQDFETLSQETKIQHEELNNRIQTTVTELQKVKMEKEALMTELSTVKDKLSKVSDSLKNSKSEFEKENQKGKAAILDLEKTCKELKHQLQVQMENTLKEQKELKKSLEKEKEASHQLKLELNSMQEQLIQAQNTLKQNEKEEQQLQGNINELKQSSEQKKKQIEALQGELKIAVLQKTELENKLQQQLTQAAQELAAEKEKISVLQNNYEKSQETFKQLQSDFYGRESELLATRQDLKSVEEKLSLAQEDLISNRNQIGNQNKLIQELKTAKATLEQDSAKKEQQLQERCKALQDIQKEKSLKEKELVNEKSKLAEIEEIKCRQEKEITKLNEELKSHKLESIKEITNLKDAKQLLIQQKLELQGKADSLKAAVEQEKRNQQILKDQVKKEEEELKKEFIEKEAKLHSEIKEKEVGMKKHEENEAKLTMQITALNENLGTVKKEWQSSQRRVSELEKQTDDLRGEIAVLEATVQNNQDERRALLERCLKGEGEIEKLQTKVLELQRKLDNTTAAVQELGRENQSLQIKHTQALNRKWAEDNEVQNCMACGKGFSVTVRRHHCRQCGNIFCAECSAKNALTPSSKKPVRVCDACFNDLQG
# UniProt Q96EP0: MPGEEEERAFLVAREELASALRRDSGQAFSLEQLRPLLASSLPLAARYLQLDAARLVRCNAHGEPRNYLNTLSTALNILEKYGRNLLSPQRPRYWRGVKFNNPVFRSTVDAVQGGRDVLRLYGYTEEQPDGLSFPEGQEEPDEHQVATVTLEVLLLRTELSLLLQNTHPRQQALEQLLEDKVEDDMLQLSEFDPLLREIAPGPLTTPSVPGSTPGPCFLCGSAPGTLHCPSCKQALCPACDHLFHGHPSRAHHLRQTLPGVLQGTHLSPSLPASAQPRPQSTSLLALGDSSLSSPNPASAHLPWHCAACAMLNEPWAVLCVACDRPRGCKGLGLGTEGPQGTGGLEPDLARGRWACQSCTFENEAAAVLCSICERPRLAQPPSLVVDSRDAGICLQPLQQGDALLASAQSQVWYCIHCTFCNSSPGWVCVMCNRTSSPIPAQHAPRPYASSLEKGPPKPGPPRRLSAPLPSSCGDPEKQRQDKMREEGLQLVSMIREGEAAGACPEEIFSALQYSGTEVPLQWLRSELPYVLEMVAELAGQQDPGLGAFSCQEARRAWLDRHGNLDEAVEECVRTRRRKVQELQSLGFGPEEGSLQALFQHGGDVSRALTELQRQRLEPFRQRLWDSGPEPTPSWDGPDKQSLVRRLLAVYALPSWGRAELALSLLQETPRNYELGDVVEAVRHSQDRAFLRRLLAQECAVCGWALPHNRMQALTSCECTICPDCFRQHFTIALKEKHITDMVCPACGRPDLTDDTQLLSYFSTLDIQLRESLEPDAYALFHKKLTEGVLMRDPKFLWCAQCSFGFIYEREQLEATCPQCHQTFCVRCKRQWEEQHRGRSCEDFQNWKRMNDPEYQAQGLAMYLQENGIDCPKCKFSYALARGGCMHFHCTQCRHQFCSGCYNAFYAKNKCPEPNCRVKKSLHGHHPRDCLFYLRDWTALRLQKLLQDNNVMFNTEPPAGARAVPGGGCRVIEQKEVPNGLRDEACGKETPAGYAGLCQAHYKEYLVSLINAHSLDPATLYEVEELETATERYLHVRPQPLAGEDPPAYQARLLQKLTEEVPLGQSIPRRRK
# UniProt Q9UDY8: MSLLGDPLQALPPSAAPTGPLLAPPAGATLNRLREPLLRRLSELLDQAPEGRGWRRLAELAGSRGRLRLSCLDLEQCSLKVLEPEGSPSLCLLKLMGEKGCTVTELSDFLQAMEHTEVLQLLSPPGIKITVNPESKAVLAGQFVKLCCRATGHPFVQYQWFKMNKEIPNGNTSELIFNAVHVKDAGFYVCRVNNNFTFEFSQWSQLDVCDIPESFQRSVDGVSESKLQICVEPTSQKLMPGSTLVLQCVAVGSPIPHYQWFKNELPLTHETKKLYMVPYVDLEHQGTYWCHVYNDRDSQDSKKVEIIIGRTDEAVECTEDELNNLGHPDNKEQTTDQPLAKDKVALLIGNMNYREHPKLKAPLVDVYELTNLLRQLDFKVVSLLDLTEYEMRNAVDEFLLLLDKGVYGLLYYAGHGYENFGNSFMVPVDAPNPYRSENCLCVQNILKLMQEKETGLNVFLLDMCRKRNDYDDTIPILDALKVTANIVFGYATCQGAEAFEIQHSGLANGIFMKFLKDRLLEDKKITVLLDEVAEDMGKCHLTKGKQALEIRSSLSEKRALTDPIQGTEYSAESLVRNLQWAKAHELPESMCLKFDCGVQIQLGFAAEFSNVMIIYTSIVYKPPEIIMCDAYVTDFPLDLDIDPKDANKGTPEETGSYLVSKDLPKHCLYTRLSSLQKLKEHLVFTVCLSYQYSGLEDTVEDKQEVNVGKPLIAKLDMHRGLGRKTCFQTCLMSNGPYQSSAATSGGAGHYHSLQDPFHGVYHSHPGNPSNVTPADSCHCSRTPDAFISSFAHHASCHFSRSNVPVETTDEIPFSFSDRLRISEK
# UniProt Q13489: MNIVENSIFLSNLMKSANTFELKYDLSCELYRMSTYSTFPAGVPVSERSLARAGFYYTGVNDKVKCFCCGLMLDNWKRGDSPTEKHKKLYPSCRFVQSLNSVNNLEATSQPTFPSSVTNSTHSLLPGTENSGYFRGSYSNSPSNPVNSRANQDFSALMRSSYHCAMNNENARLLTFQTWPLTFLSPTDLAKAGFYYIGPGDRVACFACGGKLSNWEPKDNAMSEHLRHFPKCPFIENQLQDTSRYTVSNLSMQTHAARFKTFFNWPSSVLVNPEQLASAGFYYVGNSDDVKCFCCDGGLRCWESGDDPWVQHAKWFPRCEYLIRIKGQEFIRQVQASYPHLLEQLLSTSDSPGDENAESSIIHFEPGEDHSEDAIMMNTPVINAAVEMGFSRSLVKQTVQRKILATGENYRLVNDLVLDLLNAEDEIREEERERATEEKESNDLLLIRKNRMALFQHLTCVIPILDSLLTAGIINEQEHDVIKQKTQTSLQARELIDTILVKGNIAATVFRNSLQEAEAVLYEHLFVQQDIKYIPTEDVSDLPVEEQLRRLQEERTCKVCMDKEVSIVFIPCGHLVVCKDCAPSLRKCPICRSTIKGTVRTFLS
# These are yes or no findings as the source states them, for the method shown. In cells and extracts the contact can be indirect. Some results given as binding are weak or reduced against the parent protein; the word gives no strength.
# Key:
# [1] = target: CARD14^WT-3xFLAG (human) (UniProt Q9BXL6); experiment: proximity ligation; anti-FLAG with anti-MALT1 or anti-EEA1 staining in HaCaT-TR cells ± tetracycline (3 h)
# [2] = target: CARD14^E138A-3xFLAG (human) (UniProt Q9BXL6); experiment: co-IP; anti-FLAG M2 agarose, 4°C 2 h, from HaCaT-TR lysates after 3 h tetracycline; lysis buffer 150 mM NaCl, 50 mM Tris pH 7.5, 10% glycerol, 0.25% Triton X-100; immunoblot of endogenous partners; also done in HOIP-, TRAF6-, A20-, ABIN1-, TRAF2-, cIAP2-deficient and birinapant-treated (cIAP1-depleted) cells
# [3] = target: CARD14^E138A-3xFLAG (human) (UniProt Q9BXL6); experiment: proximity ligation; anti-FLAG with anti-MALT1 or anti-EEA1 staining in HaCaT-TR cells ± tetracycline (3 h)
# [4] = target: CARD14^WT-3xFLAG (human) (UniProt Q9BXL6); experiment: co-IP; anti-FLAG M2 agarose, 4°C 2 h, from HaCaT-TR lysates after 3 h tetracycline; lysis buffer 150 mM NaCl, 50 mM Tris pH 7.5, 10% glycerol, 0.25% Triton X-100; immunoblot of endogenous partners; also done in HOIP-, TRAF6-, A20-, ABIN1-, TRAF2-, cIAP2-deficient and birinapant-treated (cIAP1-depleted) cells
Molecule,binding [1],binding [2],binding [3],binding [4]
EEA1 (from UniProt Q15075 1-1411),no binding,,,
HOIP (RNF31) (from UniProt Q96EP0 1-1072),,binds,,
MALT1 (Mucosa-associated lymphoid tissue lymphoma translocation protein 1) (from UniProt Q9UDY8 1-824),no binding,binds,binds,no binding
cIAP2 (BIRC3) (from UniProt Q13489 1-604),,binds,,
"BCL10 (B cell lymphoma protein 10) (protein, UniProt O95999 1-233) MEPTAPSLTEEDLTEVKKDALENLRVYLCEKIIAERHFDHLRAKKILSREDTEEISCRTSSRKRAGKLLDYLQENPKGLDTLVESIRREKTQNFLIQKITDEVLKLRNIKLEHLKGLKCSSCEPFPDGATNNLSRSNSDESNFSEKLRASTVMYHPEGESSTTPFFSTNSSLNLPVLEVGRTENTIFSSTTLPRPGDPGAPPLPPDLQLEEEGTCANSSEMFLPLRSRTVSRQ",,binds,,
"TAK1 (protein, UniProt O43318 1-606) MSTASAASSSSSSSAGEMIEAPSQVLNFEEIDYKEIEVEEVVGRGAFGVVCKAKWRAKDVAIKQIESESERKAFIVELRQLSRVNHPNIVKLYGACLNPVCLVMEYAEGGSLYNVLHGAEPLPYYTAAHAMSWCLQCSQGVAYLHSMQPKALIHRDLKPPNLLLVAGGTVLKICDFGTACDIQTHMTNNKGSAAWMAPEVFEGSNYSEKCDVFSWGIILWEVITRRKPFDEIGGPAFRIMWAVHNGTRPPLIKNLPKPIESLMTRCWSKDPSQRPSMEEIVKIMTHLMRYFPGADEPLQYPCQYSDEGQSNSATSTGSFMDIASTNTSNKSDTNMEQVPATNDTIKRLESKLLKNQAKQQSESGRLSLGASRGSSVESLPPTSEGKRMSADMSEIEARIAATTAYSKPKRGHRKTASFGNILDVPEIVISGNGQPRRRSIQDLTVTGTEPGQVSSRSSSPSVRMITTSGPTSEKPTRSHPWTPDDSTDTNGSDNSIPMAYLTLDHQLQPLAPCPNSKESMAVFEQHCKMAQEYMKVQTEIALLLQRKQELVAELDQDEKDQQNTSRLVQEHKKLLDENKSLSTYYQQCKKQLEVIRSQQQKRQGTS",,binds,,
